{"source": "PubChem BioAssay AID652243 (Drosophila RNAi Screening Center, 2013)", "aim": "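Knock-downs that decrease or increase androgen receptor reporter signal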 (primary screen)", "cells": "Drosophila S2R+ cells", "knock-down reagent": "long dsRNA against Drosophila genes", "time to read-out": "72 h (48 h, then 24 h hormone)", "challenge": "synthetic androgen R1881 at 10 nM for 24 h", "measured": "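Per-well raw luminescence of the androgen-driven firefly reporter and of the Renilla control, two replicates each, without normalisation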", "reading the numbers": "firefly reporter light: higher = more light from androgen-responsive reporter; Renilla control light: higher = more constitutive control signal (cell number, transfection)", "call rule": "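Hit when the log firefly-to-Renilla ratio dropped or increased by a fixed fold versus the mean of GFP or LacZ controls across duplicate plates; lowering cut given as 1.5 and as 3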", "meaning of the calls": "active = hit: reporter lowered or raised; inactive = no hit", "note": "The screen tested about 24,000 reagents; this is a random part of those that have a named target and a result. Of all reagents, 246 (1%) were called active. 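Plates not normalised; calls are printed but the firefly/Renilla ratio behind them is not deposited; fold cut for lowering reported inconsistently.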 The raw values are shown without normalisation. A plus sign joins genes that one reagent is predicted to hit. Reagent sequences are not shown. Not stated in the record: the amount of reagent."}
{"target":"CG11585","dsRNA":"DRSC19410","firefly reporter light, replicate 1":2.25e5,"firefly reporter light, replicate 2":3.18e5,"Renilla control light, replicate 1":3.23e6,"Renilla control light, replicate 2":2.89e6,"activity call":"inactive"}
{"target":"CG11585","dsRNA":"DRSC27386","firefly reporter light, replicate 1":2.19e5,"firefly reporter light, replicate 2":2.24e5,"Renilla control light, replicate 1":7.15e5,"Renilla control light, replicate 2":4.69e5,"activity call":"inactive"}
{"target":"ppk6","dsRNA":"DRSC06062","firefly reporter light, replicate 1":45186,"firefly reporter light, replicate 2":50169,"Renilla control light, replicate 1":4.98e5,"Renilla control light, replicate 2":5.55e5,"activity call":"inactive"}
{"target":"ppk6","dsRNA":"DRSC29267","firefly reporter light, replicate 1":4.98e5,"firefly reporter light, replicate 2":3.67e5,"Renilla control light, replicate 1":2.11e6,"Renilla control light, replicate 2":1.83e6,"activity call":"inactive"}
{"target":"ppk6","dsRNA":"DRSC39033","firefly reporter light, replicate 1":1.00e6,"firefly reporter light, replicate 2":1.12e6,"Renilla control light, replicate 1":2.31e6,"Renilla control light, replicate 2":2.16e6,"activity call":"inactive"}
{"target":"FDY","dsRNA":"DRSC38616","firefly reporter light, replicate 1":7.33e5,"firefly reporter light, replicate 2":8.30e5,"Renilla control light, replicate 1":1.76e6,"Renilla control light, replicate 2":2.05e6,"activity call":"inactive"}
{"target":"CG12078","dsRNA":"DRSC08242","firefly reporter light, replicate 1":91850,"firefly reporter light, replicate 2":1.03e5,"Renilla control light, replicate 1":1.04e6,"Renilla control light, replicate 2":1.36e6,"activity call":"inactive"}
{"target":"CG14864","dsRNA":"DRSC14987","firefly reporter light, replicate 1":1.23e5,"firefly reporter light, replicate 2":1.72e5,"Renilla control light, replicate 1":2.20e6,"Renilla control light, replicate 2":2.45e6,"activity call":"inactive"}
{"target":"CG7963","dsRNA":"DRSC16355","firefly reporter light, replicate 1":94073,"firefly reporter light, replicate 2":55577,"Renilla control light, replicate 1":2.18e6,"Renilla control light, replicate 2":1.44e6,"activity call":"inactive"}
{"target":"Pomp","dsRNA":"DRSC03201","firefly reporter light, replicate 1":5.09e5,"firefly reporter light, replicate 2":1.12e6,"Renilla control light, replicate 1":9.18e5,"Renilla control light, replicate 2":1.65e6,"activity call":"inactive"}
{"target":"Pomp","dsRNA":"DRSC27581","firefly reporter light, replicate 1":2.37e5,"firefly reporter light, replicate 2":1.66e5,"Renilla control light, replicate 1":3.31e5,"Renilla control light, replicate 2":5.02e5,"activity call":"inactive"}
{"target":"Pdxk","dsRNA":"DRSC10419","firefly reporter light, replicate 1":1.07e5,"firefly reporter light, replicate 2":77245,"Renilla control light, replicate 1":1.78e6,"Renilla control light, replicate 2":1.19e6,"activity call":"inactive"}
{"target":"Pdxk","dsRNA":"DRSC37063","activity call":"inactive"}
{"target":"lncRNA:roX2","dsRNA":"DRSC22237","firefly reporter light, replicate 1":6.75e5,"firefly reporter light, replicate 2":5.58e5,"Renilla control light, replicate 1":2.42e6,"Renilla control light, replicate 2":2.09e6,"activity call":"inactive"}
{"target":"lncRNA:roX2","dsRNA":"DRSC27049","firefly reporter light, replicate 1":3.17e5,"firefly reporter light, replicate 2":3.19e5,"Renilla control light, replicate 1":7.98e5,"Renilla control light, replicate 2":5.95e5,"activity call":"inactive"}
{"target":"Osi24","dsRNA":"DRSC12275","firefly reporter light, replicate 1":96190,"firefly reporter light, replicate 2":88627,"Renilla control light, replicate 1":2.14e6,"Renilla control light, replicate 2":2.20e6,"activity call":"inactive"}
{"target":"CG14154","dsRNA":"DRSC10156","firefly reporter light, replicate 1":2.02e5,"firefly reporter light, replicate 2":1.75e5,"Renilla control light, replicate 1":2.30e6,"Renilla control light, replicate 2":2.09e6,"activity call":"inactive"}
{"target":"Mst77F","dsRNA":"DRSC11871","firefly reporter light, replicate 1":2.36e5,"firefly reporter light, replicate 2":2.67e5,"Renilla control light, replicate 1":2.53e6,"Renilla control light, replicate 2":2.90e6,"activity call":"inactive"}
{"target":"PGRP-SC1a + PGRP-SC1b","dsRNA":"DRSC25294","firefly reporter light, replicate 1":4.87e5,"firefly reporter light, replicate 2":2.97e5,"Renilla control light, replicate 1":3.33e5,"Renilla control light, replicate 2":4.78e5,"activity call":"inactive"}
{"target":"CG1542","dsRNA":"DRSC15035","firefly reporter light, replicate 1":81222,"firefly reporter light, replicate 2":50384,"Renilla control light, replicate 1":7.46e5,"Renilla control light, replicate 2":3.05e5,"activity call":"inactive"}
{"target":"CG1542","dsRNA":"DRSC28631","firefly reporter light, replicate 1":3.91e5,"firefly reporter light, replicate 2":4.49e5,"Renilla control light, replicate 1":8.53e5,"Renilla control light, replicate 2":8.33e5,"activity call":"inactive"}
{"target":"CG7692","dsRNA":"DRSC10902","firefly reporter light, replicate 1":2.22e5,"firefly reporter light, replicate 2":2.31e5,"Renilla control light, replicate 1":1.80e6,"Renilla control light, replicate 2":1.49e6,"activity call":"inactive"}
{"target":"CG7692","dsRNA":"DRSC24040","firefly reporter light, replicate 1":9.44e5,"firefly reporter light, replicate 2":8.71e5,"Renilla control light, replicate 1":1.09e6,"Renilla control light, replicate 2":1.12e6,"activity call":"inactive"}
{"target":"nocte","dsRNA":"DRSC18123","firefly reporter light, replicate 1":61947,"firefly reporter light, replicate 2":1.07e5,"Renilla control light, replicate 1":6.02e5,"Renilla control light, replicate 2":6.11e5,"activity call":"inactive"}
{"target":"nocte","dsRNA":"DRSC28453","firefly reporter light, replicate 1":3.09e5,"firefly reporter light, replicate 2":4.84e5,"Renilla control light, replicate 1":4.43e5,"Renilla control light, replicate 2":7.95e5,"activity call":"inactive"}
{"target":"Tb","dsRNA":"DRSC15815","firefly reporter light, replicate 1":2.40e5,"firefly reporter light, replicate 2":2.32e5,"Renilla control light, replicate 1":2.11e6,"Renilla control light, replicate 2":2.10e6,"activity call":"inactive"}
{"target":"Tb","dsRNA":"DRSC23554","firefly reporter light, replicate 1":1.11e6,"firefly reporter light, replicate 2":8.74e5,"Renilla control light, replicate 1":1.05e6,"Renilla control light, replicate 2":1.15e6,"activity call":"inactive"}
